Results are given in words; binding and its absence hold for the method and conditions named. In cells and extracts the contact can be indirect.
Target: EphA2 (as used in the Co-IP with Lyn, Src, Fyn and Lck, Fig. S2), P29317
Test: co-IP; EphA2 with SRC family kinases (Fig. S2A-D); endogenous or tagged proteins and cells not stated
Conditions: remark: other sources report otherwise

B1: Lyn, P07948 1-512 (enzyme)
chain: MGCIKSKGKDSLSDDGVDLKTQPVRNTERTIYVRDPTSNKQQRPVPESQLLPGQRFQTKDPEEQGDIVVALYPYDGIHPDDLSFKKGEKMKVLEEHGEWWKAKSLLTKKEGFIPSNYVAKLNTLETEEWFFKDITRKDAERQLLAPGNSAGAFLIRESETLKGSFSLSVRDFDPVHGDVIKHYKIRSLDNGGYYISPRITFPCISDMIKHYQKQADGLCRRLEKACISPKPQKPWDKDAWEIPRESIKLVKRLGAGQFGEVWMGYYNNSTKVAVKTLKPGTMSVQAFLEEANLMKTLQHDKLVRLYAVVTREEPIYIITEYMAKGSLLDFLKSDEGGKVLLPKLIDFSAQIAEGMAYIERKNYIHRDLRAANVLVSESLMCKIADFGLARVIEDNEYTAREGAKFPIKWTAPEAINFGCFTIKSDVWSFGILLYEIVTYGKIPYPGRTNADVMTALSQGYRMPRVENCPDELYDIMKMCWKEKAEERPTFDYLQSVLDDFYTATEGQYQQQP
  binding: no binding
